Source: PMC4452847
No constants are given. Whether binding was seen depends on the method and setting. Binding seen in cells or lysates may run through a third protein. Some results given as binding are weak or reduced against the parent protein; the word gives no strength.

Amino acid sequences for entries named in this document (tags omitted). Residues count along the entry.
UniProt Q99K10, residues 46-843: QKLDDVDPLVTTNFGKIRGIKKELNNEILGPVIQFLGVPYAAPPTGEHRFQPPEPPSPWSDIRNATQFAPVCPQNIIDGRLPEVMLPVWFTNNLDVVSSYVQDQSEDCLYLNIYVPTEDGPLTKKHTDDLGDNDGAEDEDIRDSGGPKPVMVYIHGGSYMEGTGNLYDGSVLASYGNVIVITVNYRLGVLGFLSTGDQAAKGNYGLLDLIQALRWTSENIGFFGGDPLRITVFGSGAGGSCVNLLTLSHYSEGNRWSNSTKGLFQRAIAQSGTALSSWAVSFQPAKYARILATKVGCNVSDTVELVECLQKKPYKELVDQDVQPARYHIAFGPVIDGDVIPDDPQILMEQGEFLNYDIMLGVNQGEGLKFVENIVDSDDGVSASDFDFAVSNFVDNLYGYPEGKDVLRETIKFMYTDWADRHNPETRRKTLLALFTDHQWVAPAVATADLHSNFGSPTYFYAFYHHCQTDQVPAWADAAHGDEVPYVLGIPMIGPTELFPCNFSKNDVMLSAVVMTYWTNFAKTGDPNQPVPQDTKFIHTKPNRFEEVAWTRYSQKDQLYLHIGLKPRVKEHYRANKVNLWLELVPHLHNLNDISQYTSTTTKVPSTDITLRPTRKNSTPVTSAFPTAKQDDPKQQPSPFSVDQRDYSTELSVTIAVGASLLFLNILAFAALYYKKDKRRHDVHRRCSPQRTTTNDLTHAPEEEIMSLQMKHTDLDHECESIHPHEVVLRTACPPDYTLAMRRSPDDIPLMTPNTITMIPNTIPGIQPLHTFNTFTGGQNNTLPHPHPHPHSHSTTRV

Tests used:
[1] = molecular target: HA-tagged neuroligin 1, NL1-AB (UniProt Q99K10); test: co-IP; lysates of HEK293/293T cells transfected singly with HA-NL1-AB or myc-Kal-7 were mixed, then immunoprecipitated with anti-HA, anti-myc or anti-Kal antibody; IP buffer PBS, 1% NP40; protein A/G magnetic beads; immunoblot
[2] = molecular target: HA-tagged neuroligin 1, NL1-AB (UniProt Q99K10); test: co-IP; lysates of HEK293 cells transfected singly with HA-NL1-AB, myc-Kal-7 or FLAG-DISC1 were mixed as indicated (with or without the third lysate), then immunoprecipitated; immunoblot

binding [1]: binds
binding [2]: binds
Substance: myc-tagged kalirin-7 (pEAK10-His-Myc-Kal7) (from UniProt P97924-6 1-1654)
